Measured values: US5733879A, “Peptides and proteins, process for their preparation and their use as cholesterol acceptors” (N.V. Innogenetics, S.A., priority 1992, dated 1998)
Part of at least one peptide drawing is inferred or uncertain, most often the ends.

How the values were obtained:
[1] = Percentage of alpha-helix structure by ATR infrared spectroscopy; assay type: physicochemical
Excerpt: (§1) Table 1: corresponds to the percentage of alpha-helix structure in the free peptide and in the phospholipid-peptide (DMPC) complexes as determined by infrared spectroscopy (IR) and circular dichroism (CD).
Attenuated Total Reflection (ATR) infrared spectroscopy was used for the determination of the relative orientation of the apolipoprotein alpha-helical segments and of the phospholipid acyl chains as previously described for apo AI and apo AI-phospholipid complexes and for LDL (Vanloo et at., 1991). For these measurements, a 70 μL solution of 20 μg isolated complex in a 0.005M Tris-HCl buffer pH 8.4, was spread on a ATR Germanium crystal plate. […]
Spectra were recorded on a Perkin Elmer 1720X infrared spectrophotometer, using polarized incident light with a perpendicular (90°) and parallel (0°) orientation. A dichroic spectrum was obtained by substracting the spectrum recorded with polarized light at 0° from that at 90°. A positive deviation on the dichroic spectrum indicates a dipole preferentially oriented close to a normal to the plane, while a larger absorbance at 0° is indicative of a dipole oriented close to the Ge crystal plane. The angle between a normal to the Ge crystal and the dipole is obtained from the calculation of the dichroic ratio Ratr =A(90°)/A(0°), representing the ratio of the absorbances on the spectra recorded with polarized light at 90° and 0° . […]

[2] = Percentage of alpha-helix structure by circular dichroism; assay type: physicochemical
Protocol: as §1
Circular dichroism spectra of the peptides and their complexes with lipids were measured on a Jasco 600 spectropolarimeter at 23° C. (Brasscur et at., 1991). Measurements were carried out at a protein concentration of 0.1 mg/ml in a 0.01M sodium phosphate buffer pH 7.4. Nine spectra were collected and averaged for each sample. The secondary structure was estimated according to the generalized inverse method of Compton and Johnson (Compton et at., 1986).

[3] = molecular target: T1, semi-purified LCAT enzyme (Homo sapiens, UniProt P04180); experiment: LCAT activation properties of the phospholipid-peptide complexes (HPLC of cholesteryl esters); assay type: biochemical
T1 construct: corresponds to the concentration relative to that in plasma by a factor of 5100, with the major contaminant being albumin; from tissue
T1 sequence (P04180 25-440): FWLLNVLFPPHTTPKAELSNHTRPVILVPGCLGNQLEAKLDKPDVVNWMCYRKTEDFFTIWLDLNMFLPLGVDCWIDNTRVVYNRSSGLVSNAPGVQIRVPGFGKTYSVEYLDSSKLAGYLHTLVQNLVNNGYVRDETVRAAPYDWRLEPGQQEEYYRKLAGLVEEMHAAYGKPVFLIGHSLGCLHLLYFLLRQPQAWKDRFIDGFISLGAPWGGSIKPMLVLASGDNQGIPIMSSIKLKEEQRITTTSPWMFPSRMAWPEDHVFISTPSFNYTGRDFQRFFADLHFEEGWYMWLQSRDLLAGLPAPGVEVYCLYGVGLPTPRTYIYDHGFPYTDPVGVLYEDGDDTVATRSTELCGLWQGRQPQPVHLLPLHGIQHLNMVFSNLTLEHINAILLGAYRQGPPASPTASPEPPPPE
Protocol: The activity of the LCAT enzyme with the various peptide-lipid complexes as substrates was determined by measuring the mount of cholesteryl esters generated during the enzymatic reaction by HPLC (Vercaemst et al., 1989).
The assay mixture consisted of variable mounts of complexes at cholesterol concentrations varying between 5 and 100 μM, 5 mg defatted bovine serum albumin (Sigma), 6 mM beta-mercaptoethanol in a reaction volume of 0.2 ml. After a preincubation of 20 min at 37° C., the enzymatic reaction was initiated by adding 3-6 μl of the semi-purified LCAT enzyme. The reaction was followed at 37° C. and was stopped by extraction of the incubation mixture with hexane-isopropanol 3:2, v/v. The solvent mixture contained either cholesteryl heptadecanoate (Sigma) or beta-sitosterol (Sigma) as internal standards for respectively cholesteryl esters and unesterified cholesterol quantification.
The unesterified cholesterol and the cholesteryl esters are identified and quantified by isocratic HPLC on a reversed-phase Zorbax ODS column, eluted with acetonitrile-isopropanol at a ratio of 90:10 v/v for unesterified cholesterol and of 50:50 v/v for cholesteryl esters. Detection was performed by measuring the UV absorbance at 205-210 nm. At a column temperature of 50° C. and with a flow-rate of 1.2 ml/min, the separation is completed within 25 min (Vercaemst et al., 1989). […]
The time course of cholesterol esterification by the LCAT enzyme with discoidal substrates consisting of PLPC, cholesterol, and the synthetic peptides, was followed between 0 and 24 h (Jonas, 1987). For the determination of the kinetic parameters, the initial velocities were determined in the linear portion of the curves, i.e. between 0-30% cholesteryl esters formation. The sample concentrations were in the range of 5×10^-7 to 5×10^-6 M with a constant enzyme volume of 5 μl, so that a linear production of cholesteryl esters formation was measured within 10 min at 37° C.
The initial kinetics (Vo) as a function of the apoprotein or peptide (C) concentrations were analyzed using a Lineweaver-Burk plot of 1/Vo versus 1/C. […] All kinetic experiments were performed at least three times and Vmax and Km values were expressed as mean ±error on the intercept and slope of the regression line.
The kinetics of the reaction of the semi-purified LCAT enzyme with discoidal complexes generated between the peptides, PLPC and cholesterol as substrate were followed between 0 and 24 h, and compared with those of the apo AI/PLPC/cholesterol complexes. […] The time course of the reaction, expressed as the percentage of esterified cholesterol as compared with the original substrate is shown on FIGS. 5a, 5b and 6 and in Table 2. […]

J774 murine macrophages = experiment: Cellular cholesterol efflux from lipid-loaded macrophages; assay type: cell-based
Protocol: J774 murine macrophages are grown in DMEM (Gibco) with addition of 10% fetal calf serum (FCS), in a 5% CO2 atmosphere. Cells are seeded in 35 mm dishes at a density of 2×10^6 /dish, grown for 18 h in 2ml DMEM-10% FCS and used as confluent monolayers. After 18 h, the cells are washed twice with DMEM and incubated with acetylated LDL at a concentration of 100 μg apo B/ml for 24 h in a medium consisting of DMEM and 10% lipoprotein deficient serum (LPDS). LPDS is prepared from fetal cell serum (Gibco) by eliminating all lipoproteins by ultracentrifugation. After loading with cholesteryl esters, cell monolayers are washed with DMEM. […]
After incubation, cells are washed once with phosphate buffer pH 7.4, 0.15N NaGl (PBS) containing 2 g/l BSA and twice with PBS alone. […] Fifty μl of a cholesteryl heptadecanoate solution in chloroform at a concentration of 500 μg/ml are added as internal standard for the HPLC quantitation of cholesteryl esters. […]
The same extraction procedure is applied to 1 ml of the medium. For quantification of the unesterified cholesterol fraction, beta-sitosterol is used as internal standard according to methods known in the art. […]

[4] = Composition and gel chromatography of the isolated phospholipid-protein complexes; assay type: physicochemical; settings: isolated complex with DPPC, maximum of elution peak
Protocol: Complexes were obtained by incubation of the peptides with dimyristoylphosphatidylcholine (DMPC, Sigma, St Louis, Mo.) vesicles at a DMPC/peptide, w/w ratio of 3/1 at 25° C. for 16 h. Complexes with dipalmitoylphosphatidylcholine (DPPC) were generated by the cholate dialysis procedure (Vanloo et al., 1991). All complexes were isolated by gel chromatography (FIG. 4) on a Superose PG column in a 0.01M Tris-HCl buffer, pH 8.0, 0.15M NaCl, 1 mM NaN3, 0.1 g/L EDTA. The column was first saturated with the phospholipid to avoid dissociation of the lipid-peptide complexes. The complexes were detected by continuous monitoring of the optical density at 280 nm and by measurement of the Trp emission of the fractions on a Jasco SP500 spectrofluorimeter. The composition and size of the complexes, were determined on the two fractions with maximal UV absorption in the elution peak of the complexes. The composition was determined by quantitation of the phospholipids using an enzymatic assay (Biomerieux, France), and of the peptide by an HPLC phenylalanine assay on a C18 reversed-phase column, after hydrolysis (Vanloo et al., 1991).

[5] = Turbidity decrease at 325 nm on complex formation with DMPC vesicles (lipid binding); settings: from turbidity decrease with DMPC vesicles, 15-25° C.
Protocol: FIG. 1 represents the turbidity decrease (on the y-axis, expressed as E/Eo, with E being the turbidity measured at different temperature points and Eo being the turbidity measured at 15° C.) at 325 nm upon the formation of complexes with DMPC vesicles as a function of the temperature (°C.), (x-axis) and on which:
The formation of small discoidal particles between DMPC vesicles and the peptides was monitored by measuring the turbidity decrease at 325 nm as a function of temperature. […] The turbidity decrease initiated by the peptide-lipid association started already at 17° C., below the DMPC transition temperature and stabilized around 23° C. The turbidity decrease enables to determine the binding affinity of lipids to the peptides of the invention. M 1 has a strong lipid binding capacity while 18A and M4 have quite similar lipid binding affinity. The lipid binding of M3 is low compared with the other peptides.

[6] = GdmCl denaturation followed by Trp maximal emission wavelength; assay type: physicochemical; settings: free peptide or protein
[7] = phospholipid-peptide (DMPC) complex

Substance: Ac-EWLKAFYEKVLEKLKELF-NH2 [18A, Glu-Trp-Leu-Lys-Ala-Phe-Tyr-Glu-Lys-Val-Leu-Glu-Lys-Leu-Lys-Glu-Leu-Phe, reference compound]
- percentage of alpha-helix structure, peptide, IR ([1]; free peptide): 28%
- percentage of alpha-helix structure, DMPC/peptide, IR [1, 7]: 47%
- percentage of alpha-helix structure, peptide, CD ([2]; free peptide): 45%
- percentage of alpha-helix structure, DMPC/peptide, CD [2, 7]: 66%
- Vmax compared with other complexes / apo AI-phospholipid complexes ([3]; Lineweaver-Burk plots): two to three times lower
- Vmax (LCAT activation) ([3]; PLPC/cholesterol/peptide discoidal complex as substrate, apparent kinetic constant, 37° C.): 2.32 nmol CE/h
- kinetics of cholesterol esterification by LCAT (time course) ([3]; discoidal complexes with PLPC and cholesterol, 0-24 h): fastest kinetics
- Vmax/Km A % of apo A1 (LCAT activation) ([3]; relative to apo AI-phospholipid complex = 100): 10.3%
- Vmax (cholesterol efflux) (J774 murine macrophages; phospholipid-peptide complexes, cholesterol-loaded J774 cells, 24 h): 26 μg cholesterol released from t
- efflux of free cholesterol into the medium (J774 murine macrophages; protein concentration of the complex in the medium 100 μg/ml, 24 h incubation): 20 µg
- Composition DPPC/Protein w/w [4]: 2/1
- lipid binding capacity / affinity [5]: quite similar
- midpoint of the GdmCl denaturation transition, free peptide [6]: 0.25 M
